Source: the supplement of paper PMC12578635
This is one part of the list. Rule as the data show it: active = 150% or more and inactive = the rest. Most values come without repeats; read them as rough.

Test system: Staphylococcus aureus JE2-lux inside RAW 264.7 macrophages
Test: intracellular bacterial bioluminescence relative to DMSO vehicle; higher = higher intracellular bacterial metabolic activity
Settings: 10 µM; treatment time 4 h; gentamicin 50 µg/ml

Intracellular bacterial bioluminescence, inactive:
CCOC(=O)c1oc2ccccc2c1NC(=O)c1cc2ccccc2oc1=O 92%
COC(=O)c1ccc(NC(=O)C(C)N2C(=O)c3ccccc3S2(=O)=O)cc1 (centres undefined) 73.5%
Cc1cc(C)nc(SCc2cc(=O)c(OC(=O)COc3ccccc3C)co2)n1 98.6%
Cc1cccn2c(=O)c3cc(C(=O)NCc4cccnc4)c(=N)n(Cc4cccnc4)c3nc12 107%
CCCCN(C)S(=O)(=O)c1ccc(C(=O)Nc2nc3c(s2)CSc2ccccc2-3)cc1 99%
COC(=O)c1ccc(CSc2nc(=O)n3ccc(C)cc3n2)o1 79.1%
N#CC1=C(SCC(=O)Nc2ccccc2)NC(=O)CC1c1cccc([N+](=O)[O-])c1 (centres undefined) 90.6%
O=C(O)C1=CC(c2c[nH]nc2-c2ccc(F)cc2)n2ncnc2N1 (centres undefined) 103%
CCOc1cc(NC(=O)c2cccc(Cl)c2)c(OCC)cc1NC(=O)c1ccc(Cl)cc1 109%
CC(=O)c1ccc(-c2ccc(/C=C(\C#N)S(=O)(=O)c3ccccc3)o2)cc1 90.5%
Cc1cccc(S(=O)(=O)N(C)Cc2nc3cc(C(=O)N4CCCC4)ccc3n2C)c1 118%
O=C(CC1Sc2ccccc2NC1=O)Nc1ccc(Cl)cc1[N+](=O)[O-] (centres undefined) 101%
CCC(=O)Oc1cccc(N2C(=O)c3ccc(C(=O)O)cc3C2=O)c1 104%
c1ccc(CNc2nc(-c3ccccc3)no2)cc1 18.4%
CC(C)c1ccc(NC(=O)CSc2nncc(=O)[nH]2)cc1 123%
O=C(CSc1nc2sc3c(c2c(=O)[nH]1)CCCC3)Nc1nccs1 110%
CCC(Cn1nc2c(C)cc3ccccc3n2c1=O)NC(=O)c1ccco1 (centres undefined) 99.2%
Cc1nnc(NC(=O)CSc2c(CC(C)C)cnc3c2c(=O)n(C)c(=O)n3C)s1 107%
O=C(NCc1nnnn1-c1ccc(F)cc1)C1CC(=O)N(c2ccc(F)cc2)C1 (centres undefined) 83.6%
O=C(CCC(=O)N1CC(c2ccccc2)Oc2cccnc21)NCc1ccc(Cl)cc1 (centres undefined) 58.5%
O=C(NCC1COC2(CCCCC2)O1)c1ccccc1F (centres undefined) 109%
COc1cc(/C=C/C(=O)C2=C(O)c3ccccc3C2=O)ccc1O 93.8%
COc1cccc(C(=O)Oc2coc(CSc3ncccn3)cc2=O)c1 109%
COC(=O)C1=C(C)Nc2nc(SCc3ccc([N+](=O)[O-])cc3)[nH]c(=O)c2C1c1cccnc1 (centres undefined) 100%
CCNc1ncnc2c1c(-c1ccccc1)cn2-c1ccccc1 54.1%
Cc1nc2ccccc2c(=O)n1-c1cccc(NS(=O)(=O)c2ccc(F)c(C(F)(F)F)c2)c1 125%
COc1ccc(NC(=O)c2ccc(SCCN3CCCCC3)nc2)cc1OC 87%
Cc1ccc(NC(=O)C(=O)NCc2ccc3c(c2)OCO3)cc1F 102%
CCCSc1nnc(NC(=O)c2cc(-c3ccc4c(c3)CC(C)O4)on2)s1 (centres undefined) 99%
COc1ccc(C2=C(C)C(N3CCC(C(=O)N4CCc5ccccc5C4)CC3)=NS2(=O)=O)cc1 109%
Cc1ccc(-c2cc3nc(C)cc(N4CCC(C(=O)Nc5ccc(F)c(F)c5)CC4)n3n2)cc1 98%
O=C(CCn1c(-c2ccncc2)cc2cccnc21)Nc1ccccc1F 71.2%
COc1cc(OC)cc(-c2noc(Cn3c(=O)[nH]c4cc5c(cc4c3=O)OCO5)n2)c1 76.7%
O=c1nc(SCc2ccc([N+](=O)[O-])cc2)c2c(n1Cc1cccnc1)CCC2 5.11%
CSc1nnc(C)c(=O)n1COC(=O)c1ccc2ccccc2c1 65.5%
CCCc1cc(CNC(=O)C(C)N2C(=O)NC(C)(C)C2=O)on1 (centres undefined) 115%
Cc1cc(C(=O)CSc2nnc3ccccn23)c(C)n1Cc1ccccc1 42.6%
O=C(CSc1nnc2c(n1)[nH]c1ccc(Cl)cc12)NCc1ccc2c(c1)OCO2 93.2%
Cc1noc(C)c1CSc1ncnc2sc3c(c12)CCCC3 107%
Cc1cnc(C(=O)N2CCC(c3nc4c(c(N5CCCC5)n3)CCC4)CC2)cn1 121%
CC(=O)Nc1ccc(Nc2c3c(nc4ncnn24)CCC3)cc1 120%
Cc1cc(C)c2c(n1)sc1c(=O)n(-c3ccc(C(=O)Nc4ccc(C)c(F)c4)cc3)cnc12 97.5%
Cc1c(-c2ccccc2)n[nH]c1C(=O)NC(c1ccccc1)c1cccnc1 (centres undefined) 16.2%
Cc1ccc(-c2noc(-c3cccn4c(=O)c5ccccc5nc34)n2)cc1 66.5%
Cc1c(NC(=S)NCCc2ccccc2)c(=O)n(-c2ccccc2)n1C 103%
CNC(=S)NCCc1cc2c(OC)ccc(OC)c2[nH]c1=O 115%
C=CCn1c(SCC(=O)Nc2nccs2)nc2sc(C)c(C)c2c1=O 116%
Clc1ccc2nc(Nc3nc4cc5c(cc4s3)OCO5)sc2c1 98.5%
CCCCCn1c(=S)[nH]c2cc(C(=O)NCc3ccc4c(c3)OCO4)ccc2c1=O 113%
O=c1c2sc3ccccc3c2[nH]c(=S)n1CCc1c[nH]c2ccccc12 94.7%
CSc1ncc(C(=O)Nc2ccc(C)c(C)c2)c(=O)n1C 119%
CCOC(=O)CNC(=O)CS(=O)(=O)c1cn(CC(=O)N2CCCCCC2)c2ccccc12 97.9%
Cc1ccc(OCCCC(=O)Nc2sc3c(c2C(N)=O)CCC(C)C3)c(C)c1 (centres undefined) 85.7%
CCc1ccc(S(=O)(=O)c2nnn3c2nc(N2CCC(C(N)=O)CC2)c2cc(Cl)ccc23)cc1 100%
CC(=O)c1cccc(Nc2nc(Nc3ccc(F)c(Cl)c3)nc(N3CCOCC3)n2)c1 15.9%
CC(=O)c1ccc(NC(=O)c2sc3nc(C)cc(C)c3c2N)cc1 131%
Cc1cc(Cl)cc2sc(N(Cc3cccnc3)C(=O)CN3C(=O)CCC3=O)nc12 48.6%
CCCC(=O)Nc1ccc(NC(=O)c2ccncc2)cn1 93.5%
COc1ccc(NC(=O)c2cnc(SCC(=O)NCc3ccc4c(c3)OCO4)n(C)c2=O)cc1 27.2%
C=CCc1cccc2cc(C(=O)Nc3cc(C)ccc3C)c(=O)oc12 94.5%
O=c1[nH]c2cc3ccccc3c(=O)n2c2sc3c(c12)CCCC3 131%
CC(=O)NCCNc1nc2c(c(=O)n(C)c(=O)n2C)n1CC(=O)Nc1ccccc1C 110%
COCCNC(=O)C1c2ccccc2C(=O)N1Cc1ccc(F)cc1 (centres undefined) 107%
CC(Cc1cccs1)NC(=O)c1cnn(-c2ccc(F)cc2)c1 (centres undefined) 60.6%
O=C(Nc1nc2c(s1)COc1ccccc1-2)C1COc2ccccc2O1 (centres undefined) 93.6%
O=C(/C=C\c1ccc([N+](=O)[O-])cc1)NC1CC(=O)N(c2ccccc2)C1 (centres undefined) 71.8%
O=C(CN1C(=O)/C(=C2\NC(=S)NC2=O)c2ccccc21)Nc1cccc(Cl)c1 92.9%
COc1cccc(Cn2c(C3CC3)nc3ccc(NC(=O)c4ccncc4)cc3c2=O)c1 93.4%
O=C(CC1CCN(C(=O)c2cc3ccccc3[nH]2)CC1)NCc1ccc2c(c1)OCO2 64%
CCc1ccc2c(c1)[C@H]1OCC[C@H]1C(c1ccc(C(=O)O)cc1)N2 (some centres undefined) 115%
COc1ccc(Cl)cc1Nc1ncnc2c1c(C)c(C)n2-c1ccccc1 97.3%
NC(=O)Cn1c2ccc([N+](=O)[O-])cc2c2cc([N+](=O)[O-])ccc21 118%
COc1cc(OC)c(NC(=O)N2CCC(n3cnc4cccnc43)CC2)cc1Cl 84.4%
CC(=O)N1CCN(C2=NC(=O)/C(=C\c3cccc([N+](=O)[O-])c3)S2)CC1 85.2%
O=S(=O)(Nc1cccc(-c2ccc(N3CCCC3)nn2)c1)c1cccnc1 124%
CCCCN(C)c1cc(C(=O)O)c2cc(NC(=O)c3cccc(C)c3)ccc2n1 144%
O=C(NCc1nnnn1-c1ccc(Cl)cc1)c1ccc(-c2ccccc2)cc1 72%
CS(=O)(=O)c1ccc(CC(=O)Nc2ncc(S(=O)(=O)c3ccc([N+](=O)[O-])cc3)s2)cc1 66.5%
C=CCn1c(Sc2nc(C)cs2)nc2c1c(=O)[nH]c(=O)n2C 96.7%
O=C(NCCS(=O)(=O)N1CCCCC1)c1ccccc1 94.7%
Cc1ccc(C(=O)Nc2c(C#N)[nH]c3sc4c(c23)CCCC4)cc1 98.5%
CC(Sc1nnc2c(n1)[nH]c1ccccc12)C(=O)NC(c1ccccc1)c1ccccc1 (centres undefined) 83%
N#Cc1c(NC(=O)CS(=O)(=O)c2ccccc2)sc2c1CCCCC2 118%
O=C(CSc1ncccn1)Nc1ccc(C(=O)N2CCOCC2)cc1 111%
Cc1ccc2cc(C#N)c(NCCCNC(=O)NC3CCCCC3)nc2c1 63.9%
N#Cc1c(NC(=O)CSc2nnc3c(n2)-c2cccc4cccc-3c24)sc2c1CCCC2 48.1%
O=C(CCc1nnc2n(Cc3ccc(Cl)cc3)c(=O)c3ccccc3n12)NCc1cccnc1 95.7%
CCOc1ccc(-n2c(-c3ccccc3)cn3c4c(=O)n(CC(N)=O)c(=O)n(C)c4nc23)cc1 112%
Cc1cc(C)nc(SCC(=O)Nc2ncc(Cc3cccc4ccccc34)s2)n1 43.9%

Random excerpt: five compounds from above
Intracellular bacterial bioluminescence, inactive:
CC(Cc1cccs1)NC(=O)c1cnn(-c2ccc(F)cc2)c1 (centres undefined) 60.6%
Cc1cnc(C(=O)N2CCC(c3nc4c(c(N5CCCC5)n3)CCC4)CC2)cn1 121%
COC(=O)c1ccc(NC(=O)C(C)N2C(=O)c3ccccc3S2(=O)=O)cc1 (centres undefined) 73.5%
Cc1ccc(-c2noc(-c3cccn4c(=O)c5ccccc5nc34)n2)cc1 66.5%
Cc1ccc(C(=O)Nc2c(C#N)[nH]c3sc4c(c23)CCCC4)cc1 98.5%

Sorted by SMILES length (ascending): some entries from above
Intracellular bacterial bioluminescence, inactive:
C=CCn1c(SCC(=O)Nc2nccs2)nc2sc(C)c(C)c2c1=O 116%
CCC(=O)Oc1cccc(N2C(=O)c3ccc(C(=O)O)cc3C2=O)c1 104%
COc1cccc(Cn2c(C3CC3)nc3ccc(NC(=O)c4ccncc4)cc3c2=O)c1 93.4%
